PubChem BioAssay AID1508597 | Cure First – 2020

Assay: 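Survival screen with siRNA in ovarian cancer cells derived from patients, with or without rucaparib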 (primary screen)
Cell system: human ovarian carcinoma lines grown from tumours: OCI-P5x (papillary serous) and OCI-C5x (clear cell)
Reagents: siRNA pool against human genes, 1.25 pmol siRNA per well
Time to read-out: 72 h or 96 h, depending on the cell culture
Conditions: rucaparib 20 µM (about IC30) or vehicle, present until read-out
Read-out: 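Luminescent ATP-based viability assay read 72 or 96 h after transfection, depending on culture, given as normalised percent viability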
Reading the numbers: viability, normalised: higher = more viable cells remaining
Call rule: 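Active when normalised viability falls below 80 percent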
Calls: active = viability under 80%; inactive = viability 80% or more
Here is an unselected part of about 2,100 reagents tested. 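Calls flag viability under 80% in either arm, not effects specific to rucaparib; the reference for percent is not stated.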 Unmarked entries are inactive. Some reagents were tested in more than one well and are listed for each. Not given: the 100% reference.

Target gene | rucaparib or vehicle | cell line | technical replicate | viability, normalised (%)
UBTF (GeneID 7343) | Rucaparib | OCI-C5x (clear cell) | 1 | 51.6 (active)
UBTF (GeneID 7343) | Rucaparib | OCI-C5x (clear cell) | 2 | 44.3 (active)
UBTF (GeneID 7343) | Rucaparib | OCI-C5x (clear cell) | 3 | 36.5 (active)
UBTF (GeneID 7343) | Rucaparib | OCI-P5x (serous) | 1 | 51.2 (active)
UBTF (GeneID 7343) | Rucaparib | OCI-P5x (serous) | 2 | 47.7 (active)
UBTF (GeneID 7343) | Rucaparib | OCI-P5x (serous) | 3 | 74.6 (active)
UBTF (GeneID 7343) | Vehicle | OCI-C5x (clear cell) | 1 | 66 (active)
UBTF (GeneID 7343) | Vehicle | OCI-C5x (clear cell) | 2 | 56 (active)
UBTF (GeneID 7343) | Vehicle | OCI-C5x (clear cell) | 3 | 53.7 (active)
UBTF (GeneID 7343) | Vehicle | OCI-P5x (serous) | 1 | 68.6 (active)
UBTF (GeneID 7343) | Vehicle | OCI-P5x (serous) | 2 | 65.1 (active)
UBTF (GeneID 7343) | Vehicle | OCI-P5x (serous) | 3 | 39.8 (active)
NHEJ1 (GeneID 79840) | Rucaparib | OCI-C5x (clear cell) | 1 | 50 (active)
NHEJ1 (GeneID 79840) | Rucaparib | OCI-C5x (clear cell) | 1 | 39 (active)
NHEJ1 (GeneID 79840) | Rucaparib | OCI-C5x (clear cell) | 2 | 59.1 (active)
NHEJ1 (GeneID 79840) | Rucaparib | OCI-C5x (clear cell) | 2 | 36.7 (active)
NHEJ1 (GeneID 79840) | Rucaparib | OCI-C5x (clear cell) | 3 | 58.9 (active)
NHEJ1 (GeneID 79840) | Rucaparib | OCI-C5x (clear cell) | 3 | 40.2 (active)
NHEJ1 (GeneID 79840) | Rucaparib | OCI-P5x (serous) | 1 | 71.7 (active)
NHEJ1 (GeneID 79840) | Rucaparib | OCI-P5x (serous) | 1 | 51.4 (active)
NHEJ1 (GeneID 79840) | Rucaparib | OCI-P5x (serous) | 2 | 45.8 (active)
NHEJ1 (GeneID 79840) | Rucaparib | OCI-P5x (serous) | 2 | 83.6
NHEJ1 (GeneID 79840) | Rucaparib | OCI-P5x (serous) | 3 | 42 (active)
NHEJ1 (GeneID 79840) | Rucaparib | OCI-P5x (serous) | 3 | 64.1 (active)
NHEJ1 (GeneID 79840) | Vehicle | OCI-C5x (clear cell) | 1 | 58.7 (active)
NHEJ1 (GeneID 79840) | Vehicle | OCI-C5x (clear cell) | 1 | 29.7 (active)
NHEJ1 (GeneID 79840) | Vehicle | OCI-C5x (clear cell) | 2 | 31.4 (active)
NHEJ1 (GeneID 79840) | Vehicle | OCI-C5x (clear cell) | 2 | 68.5 (active)
NHEJ1 (GeneID 79840) | Vehicle | OCI-C5x (clear cell) | 3 | 40.7 (active)
NHEJ1 (GeneID 79840) | Vehicle | OCI-C5x (clear cell) | 3 | 49.1 (active)
NHEJ1 (GeneID 79840) | Vehicle | OCI-P5x (serous) | 1 | 68.2 (active)
NHEJ1 (GeneID 79840) | Vehicle | OCI-P5x (serous) | 1 | 39.2 (active)
NHEJ1 (GeneID 79840) | Vehicle | OCI-P5x (serous) | 2 | 57 (active)
NHEJ1 (GeneID 79840) | Vehicle | OCI-P5x (serous) | 2 | 41.1 (active)
NHEJ1 (GeneID 79840) | Vehicle | OCI-P5x (serous) | 3 | 90.8
NHEJ1 (GeneID 79840) | Vehicle | OCI-P5x (serous) | 3 | 55.3 (active)
FNTB (GeneID 2342) | Rucaparib | OCI-C5x (clear cell) | 1 | 34.3 (active)
FNTB (GeneID 2342) | Rucaparib | OCI-C5x (clear cell) | 2 | 44.8 (active)
FNTB (GeneID 2342) | Rucaparib | OCI-C5x (clear cell) | 3 | 24.7 (active)
FNTB (GeneID 2342) | Rucaparib | OCI-P5x (serous) | 1 | 49.8 (active)
FNTB (GeneID 2342) | Rucaparib | OCI-P5x (serous) | 2 | 48.7 (active)
FNTB (GeneID 2342) | Rucaparib | OCI-P5x (serous) | 3 | 51.5 (active)
FNTB (GeneID 2342) | Vehicle | OCI-C5x (clear cell) | 1 | 38.5 (active)
FNTB (GeneID 2342) | Vehicle | OCI-C5x (clear cell) | 2 | 49.6 (active)
FNTB (GeneID 2342) | Vehicle | OCI-C5x (clear cell) | 3 | 53.3 (active)
FNTB (GeneID 2342) | Vehicle | OCI-P5x (serous) | 1 | 55.3 (active)
FNTB (GeneID 2342) | Vehicle | OCI-P5x (serous) | 2 | 50.4 (active)
FNTB (GeneID 2342) | Vehicle | OCI-P5x (serous) | 3 | 50.3 (active)

Next part, starting with the last 7 of the part before.
Target gene | rucaparib or vehicle | cell line | technical replicate | viability, normalised (%)
FNTB (GeneID 2342) | Rucaparib | OCI-P5x (serous) | 3 | 51.5 (active)
FNTB (GeneID 2342) | Vehicle | OCI-C5x (clear cell) | 1 | 38.5 (active)
FNTB (GeneID 2342) | Vehicle | OCI-C5x (clear cell) | 2 | 49.6 (active)
FNTB (GeneID 2342) | Vehicle | OCI-C5x (clear cell) | 3 | 53.3 (active)
FNTB (GeneID 2342) | Vehicle | OCI-P5x (serous) | 1 | 55.3 (active)
FNTB (GeneID 2342) | Vehicle | OCI-P5x (serous) | 2 | 50.4 (active)
FNTB (GeneID 2342) | Vehicle | OCI-P5x (serous) | 3 | 50.3 (active)
RBBP4 (GeneID 5928) | Rucaparib | OCI-C5x (clear cell) | 1 | 55.8 (active)
RBBP4 (GeneID 5928) | Rucaparib | OCI-C5x (clear cell) | 2 | 35.8 (active)
RBBP4 (GeneID 5928) | Rucaparib | OCI-C5x (clear cell) | 3 | 32.9 (active)
RBBP4 (GeneID 5928) | Rucaparib | OCI-P5x (serous) | 1 | 52.9 (active)
RBBP4 (GeneID 5928) | Rucaparib | OCI-P5x (serous) | 2 | 58.6 (active)
RBBP4 (GeneID 5928) | Rucaparib | OCI-P5x (serous) | 3 | 54.2 (active)
RBBP4 (GeneID 5928) | Vehicle | OCI-C5x (clear cell) | 1 | 31.3 (active)
RBBP4 (GeneID 5928) | Vehicle | OCI-C5x (clear cell) | 2 | 29.2 (active)
RBBP4 (GeneID 5928) | Vehicle | OCI-C5x (clear cell) | 3 | 32.1 (active)
RBBP4 (GeneID 5928) | Vehicle | OCI-P5x (serous) | 1 | 60.7 (active)
RBBP4 (GeneID 5928) | Vehicle | OCI-P5x (serous) | 2 | 76.8 (active)
RBBP4 (GeneID 5928) | Vehicle | OCI-P5x (serous) | 3 | 73.3 (active)
CAMKK1 (GeneID 84254) | Rucaparib | OCI-C5x (clear cell) | 1 | 52.2 (active)
CAMKK1 (GeneID 84254) | Rucaparib | OCI-C5x (clear cell) | 2 | 58.3 (active)
CAMKK1 (GeneID 84254) | Rucaparib | OCI-C5x (clear cell) | 3 | 38.9 (active)
CAMKK1 (GeneID 84254) | Rucaparib | OCI-P5x (serous) | 1 | 85.9
CAMKK1 (GeneID 84254) | Rucaparib | OCI-P5x (serous) | 2 | 87.1
CAMKK1 (GeneID 84254) | Rucaparib | OCI-P5x (serous) | 3 | 67.4 (active)
CAMKK1 (GeneID 84254) | Vehicle | OCI-C5x (clear cell) | 1 | 63.1 (active)
CAMKK1 (GeneID 84254) | Vehicle | OCI-C5x (clear cell) | 2 | 46.9 (active)
CAMKK1 (GeneID 84254) | Vehicle | OCI-C5x (clear cell) | 3 | 41.9 (active)
CAMKK1 (GeneID 84254) | Vehicle | OCI-P5x (serous) | 1 | 87.1
CAMKK1 (GeneID 84254) | Vehicle | OCI-P5x (serous) | 2 | 81.5
CAMKK1 (GeneID 84254) | Vehicle | OCI-P5x (serous) | 3 | 80.2
CYP7A1 (GeneID 1581) | Rucaparib | OCI-C5x (clear cell) | 1 | 34.6 (active)
CYP7A1 (GeneID 1581) | Rucaparib | OCI-C5x (clear cell) | 2 | 20.4 (active)
CYP7A1 (GeneID 1581) | Rucaparib | OCI-C5x (clear cell) | 3 | 26.9 (active)
CYP7A1 (GeneID 1581) | Rucaparib | OCI-P5x (serous) | 1 | 85.4
CYP7A1 (GeneID 1581) | Rucaparib | OCI-P5x (serous) | 2 | 85.7
CYP7A1 (GeneID 1581) | Rucaparib | OCI-P5x (serous) | 3 | 94.3
CYP7A1 (GeneID 1581) | Vehicle | OCI-C5x (clear cell) | 1 | 28.7 (active)
CYP7A1 (GeneID 1581) | Vehicle | OCI-C5x (clear cell) | 2 | 39.2 (active)
CYP7A1 (GeneID 1581) | Vehicle | OCI-C5x (clear cell) | 3 | 42.1 (active)
CYP7A1 (GeneID 1581) | Vehicle | OCI-P5x (serous) | 1 | 76.7 (active)
CYP7A1 (GeneID 1581) | Vehicle | OCI-P5x (serous) | 2 | 82.3
CYP7A1 (GeneID 1581) | Vehicle | OCI-P5x (serous) | 3 | 80.5
